These results are taken from PMC6305323.

These are yes or no findings as the source states them, for the method shown. Some results given as binding are weak or reduced against the parent protein; the word gives no strength.

Assay in all cases: two-hybrid; Matchmaker Gold (Clontech), Y2H Gold yeast; JAZs as bait in pGBKT7, DELLAs as prey in pGADT7; growth on DDO (-Leu/-Trp) media with 250 ng/mL Aureobasidin A, 5 days in the dark at 30°C
The target of experiment [1] is T1, OsJAZ2 (rice (Oryza sativa cv. Dongjin)) (UniProt Q8GRS2).
T1 sequence: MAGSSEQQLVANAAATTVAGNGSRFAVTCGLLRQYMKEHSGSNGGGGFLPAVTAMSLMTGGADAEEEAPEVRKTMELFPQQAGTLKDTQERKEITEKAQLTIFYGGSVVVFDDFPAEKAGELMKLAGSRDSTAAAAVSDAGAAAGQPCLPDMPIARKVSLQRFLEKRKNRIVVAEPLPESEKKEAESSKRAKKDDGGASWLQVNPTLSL

Experiment [2] addresses T2, OsJAZ7 (rice (Oryza sativa cv. Dongjin)) (UniProt Q69P94).
T2 sequence: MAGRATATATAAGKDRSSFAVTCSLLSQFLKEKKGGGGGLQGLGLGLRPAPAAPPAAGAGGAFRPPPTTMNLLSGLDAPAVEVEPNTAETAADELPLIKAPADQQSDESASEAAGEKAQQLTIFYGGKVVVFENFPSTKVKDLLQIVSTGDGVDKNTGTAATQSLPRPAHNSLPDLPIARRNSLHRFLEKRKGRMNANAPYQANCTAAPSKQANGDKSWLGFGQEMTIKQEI

Experiment [3] deals with T3, OsJAZ5 (rice (Oryza sativa cv. Dongjin)) (UniProt Q84R94).
T3 sequence: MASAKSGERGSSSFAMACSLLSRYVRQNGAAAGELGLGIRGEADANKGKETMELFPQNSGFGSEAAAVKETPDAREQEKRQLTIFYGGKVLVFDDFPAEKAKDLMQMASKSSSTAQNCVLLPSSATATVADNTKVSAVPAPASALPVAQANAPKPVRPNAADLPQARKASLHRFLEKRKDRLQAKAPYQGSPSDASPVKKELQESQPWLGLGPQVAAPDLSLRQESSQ

The target in experiment [4] is T4, OsJAZ11 (rice (Oryza sativa cv. Dongjin)) (UniProt Q7XV97).
T4 sequence: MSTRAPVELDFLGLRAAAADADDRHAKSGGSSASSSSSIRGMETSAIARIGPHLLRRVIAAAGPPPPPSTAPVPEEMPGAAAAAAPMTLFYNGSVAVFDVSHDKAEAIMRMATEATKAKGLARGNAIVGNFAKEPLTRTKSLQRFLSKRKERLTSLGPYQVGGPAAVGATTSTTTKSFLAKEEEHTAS

Experiment [5] concerns the target T5, OsJAZ12 (rice (Oryza sativa cv. Dongjin)) (UniProt Q6Z2K1).
T5 sequence: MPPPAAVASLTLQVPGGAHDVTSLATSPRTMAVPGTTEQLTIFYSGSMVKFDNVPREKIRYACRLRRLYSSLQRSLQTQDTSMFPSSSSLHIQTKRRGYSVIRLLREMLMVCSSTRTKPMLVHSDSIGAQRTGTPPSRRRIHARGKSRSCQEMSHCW

In experiment [6] the target is T6, OsJAZ3 (rice (Oryza sativa cv. Dongjin)) (UniProt Q8GSI0).
T6 sequence: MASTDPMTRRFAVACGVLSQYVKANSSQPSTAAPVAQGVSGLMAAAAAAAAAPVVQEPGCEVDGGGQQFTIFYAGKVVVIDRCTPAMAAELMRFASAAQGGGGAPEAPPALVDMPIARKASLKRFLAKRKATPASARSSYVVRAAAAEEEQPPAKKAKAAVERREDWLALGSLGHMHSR

Experiment [7] concerns the target T7, OsJAZ9 (Jasmonate ZIM-domain protein 9) (rice (Oryza sativa cv. Dongjin)) (UniProt Q6ZJU3).
T7 sequence: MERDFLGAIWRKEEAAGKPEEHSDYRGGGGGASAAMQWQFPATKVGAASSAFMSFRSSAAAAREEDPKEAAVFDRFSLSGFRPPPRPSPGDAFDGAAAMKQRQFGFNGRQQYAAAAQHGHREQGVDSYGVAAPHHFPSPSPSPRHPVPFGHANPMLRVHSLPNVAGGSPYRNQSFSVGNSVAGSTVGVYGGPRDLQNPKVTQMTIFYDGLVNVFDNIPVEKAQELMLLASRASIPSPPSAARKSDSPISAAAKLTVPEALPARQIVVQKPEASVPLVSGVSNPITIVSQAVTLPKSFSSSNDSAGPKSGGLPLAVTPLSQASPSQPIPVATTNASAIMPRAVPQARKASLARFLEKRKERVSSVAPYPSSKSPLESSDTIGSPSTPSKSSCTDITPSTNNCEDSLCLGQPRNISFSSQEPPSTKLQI

B1: SLENDER RICE 1 (SLR1) (protein, UniProt Q7G7J6 1-625)
chain: MKREYQEAGGSSGGGSSADMGSCKDKVMAGAAGEEEDVDELLAALGYKVRSSDMADVAQKLEQLEMAMGMGGVSAPGAADDGFVSHLATDTVHYNPSDLSSWVESMLSELNAPLPPIPPAPPAARHASTSSTVTGGGGSGFFELPAAADSSSSTYALRPISLPVVATADPSAADSARDTKRMRTGGGSTSSSSSSSSSLGGGASRGSVVEAAPPATQGAAAANAPAVPVVVVDTQEAGIRLVHALLACAEAVQQENFAAAEALVKQIPTLAASQGGAMRKVAAYFGEALARRVYRFRPADSTLLDAAFADLLHAHFYESCPYLKFAHFTANQAILEAFAGCHRVHVVDFGIKQGMQWPALLQALALRPGGPPSFRLTGVGPPQPDETDALQQVGWKLAQFAHTIRVDFQYRGLVAATLADLEPFMLQPEGEADANEEPEVIAVNSVFELHRLLAQPGALEKVLGTVHAVRPRIVTVVEQEANHNSGSFLDRFTESLHYYSTMFDSLEGGSSGQAELSPPAAGGGGGTDQVMSEVYLGRQICNVVACEGAERTERHETLGQWRNRLGRAGFEPVHLGSNAYKQASTLLALFAGGDGYRVEEKEGCLTLGWHTRPLIATSAWRVAAA
Consider B1, for which the binding result in experiment [1], in experiment [2], in experiment [3], in experiment [4], in experiment [5] and in experiment [6] was “no binding” in each case. The binding entry in experiment [7] was “binds”.

B2: SLR1-LIKE (SLRL) protein SLRL2 (protein, UniProt Q6F368 1-500)
chain: MAQFGGFGGWSAMDVAAAAAAALGNVSGAVYHADPAAAVYASLVPGMAVVPGRAPPSAVQIEAARRWKELEKMALRSVNLMVTCAGAIQAGDYAAAAGSLSDAREIFAKMPTTRTGIGRVLTHFADALAERLFPAFPQSAPPPPPPRGEQRELFRGFYEAGPYLKFAHLAANQAILEAFEGCNSVHVIDFALTDGIQWPSLIQALAVRPGGPPFLRITGIGPHAAGNRDELRDVGLRLAEFARSCSVPFAFRGIAADQLDGLRPWMFQVAPGEAVAINSVLQLHRLLVDQDAAAAASFPAPIDGVLDWVASMNPRVFTVVEQEADHNKSSLLERFTNSLFYYASMFDSLEAISRHGGGDGAGNPLAEAYLQGEIADIVSREGSSRVERHEQMPRWVERLRRGGMTQLPLGATGLWQAAMQLREFSGAGFGVQENGGFLTLTWHSQRLYSASAWRATAGKKMTMMASGAADAMEESQNSNTNGGGGGSSGGGHGALNQIMQ
For the molecule B2, the binding entry in experiment [1], in experiment [2], in experiment [3], in experiment [4], in experiment [5] and in experiment [6] was “no binding” throughout. For the same molecule, the binding result in experiment [7] is given as “binds”.

B3: SLR1-LIKE protein SLRL1 (protein, UniProt B7F9I5 1-495)
chain: MAMDTFPFQWPMDPAASSGLDAGFLPPPAAVAPDDGVGYYDPPAGADVDAAALPEFAAAFPPCAPDAAAAVLAMRREEEEVAGIRLVHLLMSCAGAIEAGDHALASAQLADSHAALAAVSAASGIGRVAVHFTTALSRRLFPSPVAPPTTDAEHAFLYHHFYEACPYLKFAHFTANQAILEAFHGCDHVHVIDFSLMQGLQWPALIQALALRPGGPPFLRITGIGPPSPTGRDELRDVGLRLADLARSVRVRFSFRGVAANSLDEVRPWMLQIAPGEAVAFNSVLQLHRLLGDPADQAPIDAVLDCVASVRPKIFTVIEQEADHNKTGFLDRFTEALFYYSAVFDSLDAASASGGAGNAMAEAYLQREICDIVCGEGAARRERHEPLSRWRDRLTRAGLSAVPLGSNALRQARMLVGLFSGEGHSVEEADGCLTLGWHGRPLFSASAWEAAGDGGGDNNNNSNSNVSGSSGSDSNNSGSSNGKSSGARDGSSVCL
For B3, the binding result in experiment [1], in experiment [2], in experiment [3], in experiment [4], in experiment [5] and in experiment [6] was “no binding” each time. For the same molecule, the binding entry in experiment [7] is on record as “no binding”.
